In the supplement of paper PMC8728848:
This is one part of the list.

How the values were obtained:
Assay in all cases: glycan array binding signal (z-score within array); higher = stronger binding
Settings in all cases: glycan notation: IUPAC condensed, linker removed
[1] = target: Fuc(a1-2)[Gal(a1-3)]Gal(b1-4)[Fuc(a1-3)]GlcNAc(b1-3)GalNAc
Method in brief: (§1)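 The binding signal is a Z-score computed within each array and averaged over linkers. Arrays of the same protein sequence at different concentrations or buffers were also averaged together. Data originate from 3228 arrays in the Consortium for Functional Glycomics database, kept only where the protein sequence was available.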

[2] = target: Fuc(a1-2)[Gal(a1-4)]Gal(b1-4)GlcNAc
Method in brief: as §1

[3] = target: Fuc(a1-2)[GalNAc(a1-3)]Gal
Method in brief: as §1

[4] = target: Fuc(a1-2)[GalNAc(a1-3)]Gal(b1-3)GalNAc(a1-3)[Fuc(a1-2)]Gal(b1-4)GlcNAc
Method in brief: as §1

[5] = target: Fuc(a1-2)[GalNAc(a1-3)]Gal(b1-3)GalNAc(b1-3)Gal(a1-4)Gal(b1-4)Glc
Method in brief: as §1

[6] = target: Fuc(a1-2)[GalNAc(a1-3)]Gal(b1-3)GlcNAc
Method in brief: as §1

[7] = target: Fuc(a1-2)[GalNAc(a1-3)]Gal(b1-3)GlcNAc(b1-2)Man(a1-3)[Fuc(a1-2)[GalNAc(a1-3)]Gal(b1-3)GlcNAc(b1-2)Man(a1-6)]Man(b1-4)GlcNAc(b1-4)GlcNAc
Method in brief: as §1

[8] = target: Fuc(a1-2)[GalNAc(a1-3)]Gal(b1-3)GlcNAc(b1-2)Man(a1-3)[Fuc(a1-2)[GalNAc(a1-3)]Gal(b1-3)GlcNAc(b1-2)Man(a1-6)]Man(b1-4)GlcNAc(b1-4)[Fuc(a1-6)]GlcNAc
Method in brief: as §1

[9] = target: Fuc(a1-2)[GalNAc(a1-3)]Gal(b1-3)GlcNAc(b1-3)GalNAc
Method in brief: as §1

[10] = target: Fuc(a1-2)[GalNAc(a1-3)]Gal(b1-3)GlcNAc(b1-6)GalNAc
Method in brief: as §1

[11] = target: Fuc(a1-2)[GalNAc(a1-3)]Gal(b1-4)Glc
Method in brief: as §1

[12] = target: Fuc(a1-2)[GalNAc(a1-3)]Gal(b1-4)GlcNAc
Method in brief: as §1

[13] = target: Fuc(a1-2)[GalNAc(a1-3)]Gal(b1-4)GlcNAc(b1-2)Man
Method in brief: as §1

[14] = target: Fuc(a1-2)[GalNAc(a1-3)]Gal(b1-4)GlcNAc(b1-2)Man(a1-3)[Fuc(a1-2)[GalNAc(a1-3)]Gal(b1-4)GlcNAc(b1-2)Man(a1-6)]Man(b1-4)GlcNAc(b1-4)GlcNAc
Method in brief: as §1

[15] = target: Fuc(a1-2)[GalNAc(a1-3)]Gal(b1-4)GlcNAc(b1-2)Man(a1-3)[Fuc(a1-2)[GalNAc(a1-3)]Gal(b1-4)GlcNAc(b1-2)Man(a1-6)]Man(b1-4)GlcNAc(b1-4)[Fuc(a1-6)]GlcNAc
Method in brief: as §1

[16] = target: Fuc(a1-2)[GalNAc(a1-3)]Gal(b1-4)GlcNAc(b1-3)Gal(b1-4)GlcNAc
Method in brief: as §1

[17] = target: Fuc(a1-2)[GalNAc(a1-3)]Gal(b1-4)GlcNAc(b1-3)Gal(b1-4)GlcNAc(b1-3)Gal(b1-4)GlcNAc
Method in brief: as §1

[18] = target: Fuc(a1-2)[GalNAc(a1-3)]Gal(b1-4)GlcNAc(b1-3)GalNAc
Method in brief: as §1

[19] = target: Fuc(a1-2)[GalNAc(a1-3)]Gal(b1-4)GlcNAc(b1-3)[Fuc(a1-2)[GalNAc(a1-3)]Gal(b1-4)GlcNAc(b1-6)]GalNAc
Method in brief: as §1

[20] = target: Fuc(a1-2)[GalNAc(a1-3)]Gal(b1-4)GlcNAc(b1-6)GalNAc
Method in brief: as §1

[21] = target: Fuc(a1-2)[GalNAc(a1-3)]Gal(b1-4)[Fuc(a1-3)]GlcNAc
Method in brief: as §1

[22] = target: Fuc(a1-2)[GalNAc(a1-3)]Gal(b1-4)[Fuc(a1-3)]GlcNAc(b1-3)GalNAc
Method in brief: as §1

[23] = target: Fuc(a1-2)[GalNAc(a1-4)]Gal(b1-4)GlcNAc
Method in brief: as §1

[24] = target: Fuc(a1-2)[GalNAc(b1-3)]Gal
Method in brief: as §1

[25] = target: Fuc(a1-3)GlcNAc
Method in brief: as §1

[26] = target: Fuc(a1-3)[Gal(b1-4)]Glc6S
Method in brief: as §1

[27] = target: Fuc(a1-3)[Gal(b1-4)]GlcNAc
Method in brief: as §1

[28] = target: Fuc(a1-3)[Gal(b1-4)]GlcNAc(b1-2)Man
Method in brief: as §1

[29] = target: Fuc(a1-3)[Gal(b1-4)]GlcNAc(b1-2)Man(a1-3)[Fuc(a1-3)[Gal(b1-4)]GlcNAc(b1-2)Man(a1-6)]Man(b1-4)GlcNAc(b1-4)GlcNAc
Method in brief: as §1

[30] = target: Fuc(a1-3)[Gal(b1-4)]GlcNAc(b1-2)Man(a1-3)[Fuc(a1-3)[Gal(b1-4)]GlcNAc(b1-2)Man(a1-6)]Man(b1-4)GlcNAc(b1-4)[Fuc(a1-6)]GlcNAc
Method in brief: as §1

[31] = target: Fuc(a1-3)[Gal(b1-4)]GlcNAc(b1-3)Gal(b1-3)[Fuc(a1-4)]GlcNAc
Method in brief: as §1

[32] = target: Fuc(a1-3)[Gal(b1-4)]GlcNAc(b1-3)Gal(b1-4)[Fuc(a1-3)]GlcNAc
Method in brief: as §1

[33] = target: Fuc(a1-3)[Gal(b1-4)]GlcNAc(b1-3)Gal(b1-4)[Fuc(a1-3)]GlcNAc(b1-3)Gal(b1-4)[Fuc(a1-3)]GlcNAc
Method in brief: as §1

[34] = target: Fuc(a1-3)[Gal(b1-4)]GlcNAc(b1-3)GalNAc
Method in brief: as §1

[35] = target: Fuc(a1-3)[Gal(b1-4)]GlcNAc(b1-6)GalNAc
Method in brief: as §1

[36] = target: Fuc(a1-3)[Gal(b1-4)]GlcNAc(b1-6)[Gal(b1-3)GlcNAc(b1-3)]Gal(b1-4)Glc
Method in brief: as §1

[37] = target: Fuc(a1-3)[Gal(b1-4)]GlcNAc6S
Method in brief: as §1

[38] = target: Fuc(a1-3)[Gal3S(b1-4)]Glc
Method in brief: as §1

B1: Clec12b (Mus musculus), Q149M0 (protein)
chain: MSDEVTYATLMLQDSARVRGNQDGNNLRKEGHPAQSSLWRGAALSLMTLCLVLVTGLVTLATMFLQVSNDINSDSEKLSQLQKSIHPQQDNLSESLNSSRKSLTEESLQSQISALLERQEQMATKLCKEFLIHASDHKCNPCPKTWQWYGNSCYYFSINEEKSWSDSRKDCIDKNATLVKIDSTEERDLLQSQLSLTFSFFWLGLSWNSSGRNWLWEDGSFPPPTLFSDKELASFNGSRDCAYFERGNIYASRCSAEIPWICEKTASLVKTEDLD
glycan array binding signal (z-score) [1]: -0.422 | glycan array binding signal (z-score) [2]: -0.083 | glycan array binding signal (z-score) [3]: 0.118 | glycan array binding signal (z-score) [4]: -0.495 | glycan array binding signal (z-score) [5]: -0.72 | glycan array binding signal (z-score) [6]: -0.355 | glycan array binding signal (z-score) [7]: 0.014 | glycan array binding signal (z-score) [8]: -0.336 | glycan array binding signal (z-score) [9]: -0.397 | glycan array binding signal (z-score) [10]: 4.57 | glycan array binding signal (z-score) [11]: -0.43 | glycan array binding signal (z-score) [12]: 0.126 | glycan array binding signal (z-score) [13]: -0.043 | glycan array binding signal (z-score) [14]: -0.37 | glycan array binding signal (z-score) [15]: -0.026 | glycan array binding signal (z-score) [16]: -0.749 | glycan array binding signal (z-score) [17]: -0.115 | glycan array binding signal (z-score) [18]: -0.118 | glycan array binding signal (z-score) [19]: -0.622 | glycan array binding signal (z-score) [20]: 0.308 | glycan array binding signal (z-score) [21]: -0.288 | glycan array binding signal (z-score) [22]: 1.59 | glycan array binding signal (z-score) [23]: -0.386 | glycan array binding signal (z-score) [24]: 1.39 | glycan array binding signal (z-score) [25]: -0.323 | glycan array binding signal (z-score) [26]: 0.716 | glycan array binding signal (z-score) [27]: -0.034 | glycan array binding signal (z-score) [28]: -0.713 | glycan array binding signal (z-score) [29]: 0.32 | glycan array binding signal (z-score) [30]: 0.501 | glycan array binding signal (z-score) [31]: -0.775 | glycan array binding signal (z-score) [32]: -0.443 | glycan array binding signal (z-score) [33]: -0.759 | glycan array binding signal (z-score) [34]: -0.033 | glycan array binding signal (z-score) [35]: 2.44 | glycan array binding signal (z-score) [36]: -0.766 | glycan array binding signal (z-score) [37]: 0.067 | glycan array binding signal (z-score) [38]: -0.303
